Results from patent US8338423B2, “Compositions for the treatment of hyperphenylalaninemia” (Universidad de Zaragoza, priority 2007, dated 2012).
Some entries share one result that the patent states for a list of compounds.

Tests used:
[1] = biological target: T1, R252W-PAH expressed in A293 cells (Homo sapiens, UniProt P00439, R252W); experiment: PAH activity of R252W-PAH in transfected A293 cells; type: cell-based; conditions: 40 μM compound; below detection limit of the assay
T1 construct: expressed in transfected cells; host or cells: A293 human embryonic kidney cells, pcDNA3-PAH
T1 sequence (P00439 1-452 R252W): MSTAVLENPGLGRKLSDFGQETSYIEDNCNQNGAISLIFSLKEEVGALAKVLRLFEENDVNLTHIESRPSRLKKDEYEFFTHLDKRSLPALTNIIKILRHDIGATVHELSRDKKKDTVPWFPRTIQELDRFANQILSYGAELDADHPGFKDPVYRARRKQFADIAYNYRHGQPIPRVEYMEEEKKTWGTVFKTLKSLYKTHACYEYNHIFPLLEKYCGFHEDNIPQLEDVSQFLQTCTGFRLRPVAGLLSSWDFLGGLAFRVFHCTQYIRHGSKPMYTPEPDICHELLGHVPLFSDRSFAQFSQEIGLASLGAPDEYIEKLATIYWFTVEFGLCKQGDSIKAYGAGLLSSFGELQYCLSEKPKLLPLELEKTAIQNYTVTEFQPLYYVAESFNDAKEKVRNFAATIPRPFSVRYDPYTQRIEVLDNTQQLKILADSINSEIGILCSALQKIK

[2] = Weight change of treated mice; type: in vivo; conditions: oral about 5.9 mg/kg/day for 10 days, female C57BI/6 mice

Structure (SMILES)	R252W-PAH activity [1]	weight change between start and end [2]
Nc1c(-c2ccc3ccccc3n2)c2ccc([N+](=O)[O-])cc2c(=O)n1Cc1ccccc1 [Compound 11, 3-amino-2-benzyl-7-nitro-4-(2-quinolyl)-1,2-dihydroisoquinolin-1-one]	< 0.2 % of wt-PAH	< 5%
Cc1ccnc(-n2c(=S)[nH]c3sc(C)c(C)c3c2=O)c1 [Compound 13, 5,6-dimethyl-3-(4-methyl-2-pyridinyl)-2-thioxo-2,3 dihydrothieno[2,3-d]pyrimidin-4(1H)-one]	< 0.2 % of wt-PAH	< 5%
